The test system of this data set is M3 muscarinic receptor (M3R). The data set is classed as binding.

Counter-ions that a name gives are not always drawn. Like-named read-outs stand apart in the source and are kept apart here.

Take `CN1[C@@H]2CC(OC(=O)[C@H](CO)c3ccccc3)C[C@H]1[C@@H]1O[C@@H]12.Cl` (single isomer, unassigned; (-)) [(−)-Scopolamine hydrochloride]: the “mL by Frontal Analysis (number of binding sites)” value is reported as “(1.44 ± 0.19) × 10^−7 M”.

On to `CN1[C@@H]2CC[C@H]1C[C@@H](OC(=O)C(CO)c1ccccc1)C2` (some centres unmarked) [Atropine sulfate, atropine sulfate], for which the “mL by Frontal Analysis (number of binding sites)” value (immobilized M3R column) is recorded as “(1.42 ± 0.45) × 10^−7 M”.

The values are drawn from article PMC10139132, “Immobilization of M3 Muscarinic Receptor to Rapidly Analyze Drug—Protein Interactions and Bioactive Components in a Natural Plant” (International Journal of Molecular Sciences, 2023).
